In US5677346A, “Treating urinary incontinence using (S)-desethyloxybutynin” (Sepracor, Inc., priority 1995, dated 1997):

How the values were obtained:
[1] = system: Ca channel (T + L, diltiazem site); assay type: binding, rat
Procedure: (§1) Binding assays were performed using the following methods:
(§2) Ca channel rat cerebral cortex
(T + L, diltiazem site) and Langer
Ca channel [^3 H] diltiazem
(T + L, diltiazem site) (10 μM)
(§3) Following incubation, the assays were rapidly filtered under vacuum through GF/B or GF/C glass fiber filters (Whatman) and washed with an ice-cold buffer using a Brandel Cell Harvester. Bound radio-activity was determined with a liquid scintillation counter (LS6000, Beckman) using a liquid scintillation cocktail (Formula 989, DuPont NEN).
(§4) The compounds were tested in duplicate on each receptor at a concentration of 10^-5 M. In each experiment, the reference compound for the receptor under investigation was simultaneously tested at 8 concentrations in duplicate to obtain a competition curve in order to validate this experiment.
(§5) The specific radioligand binding of each receptor was defined as the difference between total binding and nonspecific binding determined in the presence of an excess of unlabelled ligand. […] These parameters were obtained by curve fitting using Sigmaplot™ software.
(§6) The percent inhibition of specific radioligand binding induced by each compound (R-, S-, and RS-DEO) was tested at the diltiazem and verapamil sites of the L-type calcium channel.

[2] = system: Ca channel (T + L, verapamil site); experiment: Binding to calcium channel, verapamil site ([3H]D 888, rat cerebral cortex)
Procedure: as §1, §2
(T + L, verapamil site) (1986)
(T + L, verapamil site) (10 μM)
as §3, §4, §5, §6

Structure (SMILES)	Inhibition of diltiazem binding to calcium channel receptors [1]	Inhibition of verapamil binding to calcium channel receptors [2]
CCN(CC)CC#CCOC(=O)[C@](O)(c1ccccc1)C1CCCCC1 [R-OXY, reference compound]	86	86
CCN(CC)CC#CCOC(=O)[C@@](O)(c1ccccc1)C1CCCCC1 [S-OXY, 4-(diethylamino)-2-butynyl α-cyclohexyl-α-hydroxybenzeneacetate]	59	68
